Source: doi:10.1371/journal.pone.0140310, primary screening data, rounded.

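Human melanoma cell lines in 1,536-well plates were treated with a pair of drugs for 72 h, then fixed, stained and imaged. Values are the share of nuclei positive for cleaved PARP as a percentage of the same share in the DMSO control: 100 is the control level, higher means more apoptosis. Every drug was used at one fixed concentration, the higher of two screened. These are primary screening values without error estimates. The marker varies much from line to line, for technical or biological reasons.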
This is part of the screen, not chosen by result.
An entry leaves out what has no value listed here.
A dash means that no value is listed here.

Compounds and concentrations:
STA-4783, 0.03 µM: CN(NC(=O)CC(=O)NN(C)C(=S)c1ccccc1)C(=S)c1ccccc1
CP-690550, 5 µM: C[C@@H]1CCN(C(=O)CC#N)C[C@@H]1N(C)c1ncnc2[nH]ccc12
bexarotene, 10 µM: C=C(c1ccc(C(=O)O)cc1)c1cc2c(cc1C)C(C)(C)CCC2(C)C
T0901317, 7 µM: O=S(=O)(c1ccccc1)N(CC(F)(F)F)c1ccc(C(O)(C(F)(F)F)C(F)(F)F)cc1
AZD7762, 0.1 µM: NC(=O)Nc1cc(-c2cccc(F)c2)sc1C(=O)N[C@H]1CCCNC1
fingolimod, 10 µM: CCCCCCCCc1ccc(CCC(N)(CO)CO)cc1
decitabine, 0.5 µM: Nc1ncn([C@H]2C[C@H](O)[C@@H](CO)O2)c(=O)n1
Src-I1, 10 µM: COc1cc2ncnc(Nc3ccc(Oc4ccccc4)cc3)c2cc1OC
stibogluconate, 10 µM: O=C(O)[C@@H]1[O][Sb](=[O])([O][Sb]2(=[O])[O][C@H]([C@H](O)CO)[C@H](O)[C@H](C(=O)O)[O]2)[O][C@H]([C@H](O)CO)[C@@H]1O (stereo partly shown)

Src-I1 + decitabine gave WM3619: 107; WM451Lu: 69.0; COLO 792: 133; G-361: 235; UACC-62: 162; WM3526: 134; UACC-257: 78.3. For stibogluconate + T0901317 the values were WM3619: 92.9; WM451Lu: 53.4; COLO 792: 45.9; G-361: 75.9; UACC-62: 113; WM3526: 95.5; UACC-257: 22.8. With CP-690550 + fingolimod the screen read WM3619: 7660; WM1745: 3700; WM451Lu: 2920; COLO 792: 12000; G-361: 8410; UACC-62: 107; WM3526: 1230; UACC-257: 57.5. STA-4783 + CP-690550 gave WM3619: 3410; WM1745: 248; WM451Lu: 27.0; COLO 792: 679; G-361: 456; UACC-62: 161; WM3526: 80.9; UACC-257: 55.1. With AZD7762 + decitabine the screen read WM3619: 354; WM1745: 109; WM451Lu: 223; COLO 792: 289; G-361: 128; UACC-62: 177; WM3526: 767; UACC-257: 35.0.

decitabine + fingolimod gave WM3619: 5620; WM1745: 1370; WM451Lu: 1940; COLO 792: 5670; G-361: 8350; UACC-62: 311; WM3526: 989; UACC-257: 117. Results for stibogluconate + CP-690550 are WM3619: 94.4; WM1745: 69.6; WM451Lu: 61.4; COLO 792: 60.4; G-361: 63.9; UACC-62: 112; WM3526: 136; UACC-257: 63.3. T0901317 + AZD7762 gave WM3619: 346; WM1745: 158; WM451Lu: 83.2; COLO 792: 184; G-361: 99.4; UACC-62: 181; WM3526: 371; UACC-257: 62.3. For bexarotene + T0901317 the values were WM3619: 137; WM451Lu: 588; COLO 792: 69.2; G-361: 128; UACC-62: 232; WM3526: 144; UACC-257: 39.1. With Src-I1 + stibogluconate the screen read WM3619: 81.0; WM451Lu: 136; COLO 792: 180; G-361: 184; UACC-62: 329; WM3526: 241; UACC-257: 133.

With fingolimod + Src-I1 the screen read WM3619: 13500; WM451Lu: 6410; COLO 792: 11100; G-361: 11700; UACC-62: 127; WM3526: 1680; UACC-257: 74.6. STA-4783 + T0901317 gave WM3619: 1480; WM1745: 266; WM451Lu: 101; COLO 792: 764; G-361: 730; UACC-62: 224; WM3526: 142; UACC-257: 27.7. Results for stibogluconate + bexarotene are WM3619: 124; WM1745: 104; WM451Lu: 500; COLO 792: 155; G-361: 144; UACC-62: 169; WM3526: 69.6; UACC-257: 95.3. With bexarotene + decitabine the screen read WM3619: 123; WM1745: 130; WM451Lu: 103; COLO 792: 164; G-361: 178; UACC-62: 143; WM3526: 109; UACC-257: 71.4. Results for AZD7762 + CP-690550 are WM3619: 640; WM1745: 89.5; WM451Lu: 116; COLO 792: 257; G-361: 108; UACC-62: 85.9; WM3526: 480; UACC-257: 32.2.

Results for AZD7762 + Src-I1 are WM3619: 144; WM1745: 486; WM451Lu: 184; COLO 792: 344; G-361: 110; UACC-62: 395; WM3526: 1360; UACC-257: 81.1. Results for STA-4783 + bexarotene are WM3619: 2010; WM1745: 301; WM451Lu: 77.9; COLO 792: 1180; G-361: 604; UACC-62: 136; WM3526: 117; UACC-257: 144. Results for T0901317 + Src-I1 are WM3619: 159; WM1745: 188; WM451Lu: 40.1; COLO 792: 279; G-361: 652; UACC-62: 245; WM3526: 216; UACC-257: 69.9. With AZD7762 + bexarotene the screen read WM3619: 378; WM1745: 88.6; WM451Lu: 122; COLO 792: 235; G-361: 124; UACC-62: 113; WM3526: 799; UACC-257: 119. Results for T0901317 + CP-690550 are WM3619: 146; WM1745: 151; WM451Lu: 69.1; COLO 792: 69.3; G-361: 56.9; UACC-62: 71.5; WM3526: 131; UACC-257: 27.3.

Results for STA-4783 + stibogluconate are WM3619: 1200; WM1745: 281; WM451Lu: 169; COLO 792: 407; G-361: 357; UACC-62: 126; WM3526: 184; UACC-257: 70.4. Results for fingolimod + bexarotene are WM3619: 2670; WM1745: 2440; WM451Lu: 4350; COLO 792: 5400; G-361: 6820; UACC-62: 298; WM3526: 2770; UACC-257: 153. Results for CP-690550 + bexarotene are WM3619: 113; WM1745: 97.1; WM451Lu: 44.9; COLO 792: 118; G-361: 110; UACC-62: 97.6; WM3526: 166; UACC-257: 117. For Src-I1 + STA-4783 the values were WM3619: 1310; WM1745: 292; WM451Lu: 303; COLO 792: 1200; G-361: 387; UACC-62: 241; WM3526: 161; UACC-257: 58.9. For Src-I1 + CP-690550 the values were WM3619: 148; WM1745: 309; WM451Lu: 94.1; COLO 792: 30.6; G-361: 89.7; UACC-62: 99.1; WM3526: 128; UACC-257: 67.5.

For STA-4783 + fingolimod the values were WM3619: 3680; WM1745: 534; WM451Lu: 9740; COLO 792: 2270; G-361: 7100; UACC-62: 75.6; WM3526: 2150; UACC-257: 2980. With bexarotene + Src-I1 the screen read WM3619: 239; WM451Lu: 86.4; COLO 792: 176; G-361: 1810; UACC-62: 177; WM3526: 240; UACC-257: 15.4. For decitabine + CP-690550 the values were WM3619: 125; WM1745: 124; WM451Lu: 156; COLO 792: 179; G-361: 265; UACC-62: 155; WM3526: 161; UACC-257: 137. With STA-4783 + decitabine the screen read WM3619: 82.7; WM1745: 64.1; WM451Lu: 67.8; COLO 792: 49.7; G-361: 173; UACC-62: 137; WM3526: 189; UACC-257: 112. Results for T0901317 + decitabine are WM3619: 98.5; WM451Lu: 110; COLO 792: 52.4; G-361: 93.7; UACC-62: 129; WM3526: 147; UACC-257: 37.5.

With stibogluconate + AZD7762 the screen read WM3619: 373; WM1745: 129; WM451Lu: 291; COLO 792: 362; G-361: 138; UACC-62: 101; WM3526: 2360; UACC-257: 56.9. With decitabine + stibogluconate the screen read WM3619: 112; WM1745: 114; WM451Lu: 126; COLO 792: 120; G-361: 103; UACC-62: 269; WM3526: 62.7; UACC-257: 91.7.

Some entries from above, unchanged:

Combination,WM3619,WM1745,WM451Lu,COLO 792,G-361,UACC-62,WM3526,UACC-257
AZD7762 + Src-I1,144,486,184,344,110,395,1360,81.1
T0901317 + Src-I1,159,188,40.1,279,652,245,216,69.9
Src-I1 + decitabine,107,-,69.0,133,235,162,134,78.3
decitabine + fingolimod,5620,1370,1940,5670,8350,311,989,117